# Primary screen of a compound library

Chains of the proteins cited; added tags and fusions are not shown.
UniProt P9WFT3, whole entry: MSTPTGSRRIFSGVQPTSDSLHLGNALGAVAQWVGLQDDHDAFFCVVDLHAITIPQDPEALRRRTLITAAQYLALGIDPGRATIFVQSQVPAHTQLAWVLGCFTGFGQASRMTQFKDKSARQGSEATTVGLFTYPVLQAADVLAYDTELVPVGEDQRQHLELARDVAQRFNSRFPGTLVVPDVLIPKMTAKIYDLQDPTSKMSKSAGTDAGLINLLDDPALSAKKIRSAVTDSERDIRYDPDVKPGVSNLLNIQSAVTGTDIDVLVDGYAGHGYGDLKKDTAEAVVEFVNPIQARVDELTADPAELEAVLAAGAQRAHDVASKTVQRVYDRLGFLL

Leishmania in macrophages: 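Cell assay of Leishmania donovani living inside macrophages; the read-out is not stated. Concentration: 30 µM. Higher reads as stronger inhibition (inferred: compounds with an IC50 in retests scored well above the rest). Size under these conditions: about 69,000 compounds, about 1,000 of them at 50% or above in at least one test.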
MtTrpRS: 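Enzyme assay of tryptophanyl-tRNA synthetase; the read-out is not stated. Target: Tryptophan-tRNA ligase, Mycobacterium tuberculosis (UniProt P9WFT3). Concentration: 10 µM. Higher most likely means stronger inhibition; the record gives no direction and few retests gave an IC50. Size under these conditions: about 65,000 compounds, about 64 of them at 50% or above in at least one test.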
T. brucei: 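Whole-parasite assay of Trypanosoma brucei over 72 hours; the read-out is not stated. Concentration: 30 µM. The record gives no direction; compounds that gave an IC50 in retests scored well above the rest, so higher reads as stronger inhibition. Values scatter widely below zero; nearly all retest evidence comes from the higher of the two concentrations used. Of about 64,000 compounds tested this way, about 940 (1.5%) reached 50% or more in at least one test.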

Results are given as percent effect.
The record does not define 0% and 100%; most values in the screen are far below 50% and negative numbers occur (in some assays of this library far below -100).
This is an unselected part of the compounds tested.
A dash means the value is not listed here; it may have been measured.

For COc1ncccc1CN1C[C@H]2C[C@@H](C(=O)NCC3CC3)N(C)[C@H]2C1 the result was MtTrpRS: -5.141%.
For Cc1ccc(N2CC3(COCCN(Cc4ccncc4)C3)OCC2=O)s1 (stereo not given) the result was MtTrpRS: -8.207%.
For CC(C)(C)c1cc(CN2CCOC(CN)C2)n[nH]1 (stereo not given) the result was Leishmania in macrophages: 18.66%; MtTrpRS: 1.685%; T. brucei: -30.03%.
For Cc1ccc(CN2CCOC3(COCCN(CCN(C)C)C3)C2)o1 (stereo not given) the result was MtTrpRS: -0.7049%.
For Cc1cc(NC(=O)NCCC(=O)N2CCCc3ccccc32)no1 the result was Leishmania in macrophages: 8.873%; MtTrpRS: -1.125%; T. brucei: -12.99%.
For O=C(CC1=CSC2=NCCCN12)N1CCCCCC1c1ccco1 (stereo not given) the result was Leishmania in macrophages: 8.353%; MtTrpRS: 0.4167%; T. brucei: -22.11%.
For [H][C@@]12CCN(C(=O)COC)C[C@@]1([H])O[C@@H](C)C2 the result was Leishmania in macrophages: 26.93%; T. brucei: 19.11%.
For Cc1nc(CCN2CCC(Oc3ccccc3F)CC2)cs1 the result was Leishmania in macrophages: -1.971%; MtTrpRS: -2.658%; T. brucei: -2.649%.
For Cc1nc(-c2ccncc2)ncc1C(C)NC(=O)CN1CCCCC1 (stereo not given) the result was Leishmania in macrophages: 20.61%; MtTrpRS: -2.093%; T. brucei: 35.61%.
For CCCC(C)C(=O)N1CCC(n2cccc2C(=O)OC)CC1 (stereo not given) the result was Leishmania in macrophages: -22.29%; MtTrpRS: 1.394%; T. brucei: 3.956%.
For CNC(=O)CCc1cc(C2CCCCN2C(C)C)nc(C)n1 (stereo not given) the result was Leishmania in macrophages: -29.93%; MtTrpRS: 1.006%; T. brucei: -25.78%.
For COc1ccc(CN(C)[C@@H]2COC[C@H]2c2ccc(F)cc2)cc1.O=C(O)CC(O)(CC(=O)O)C(=O)O the result was Leishmania in macrophages: 10.76%; T. brucei: -2.076%.
For CN(C)CCN1CCO[C@H]2CN(Cc3ccccn3)C[C@H]21 the result was MtTrpRS: 4.158%.
For Cc1ccc(C(=O)NCCCS(=O)(=O)c2ccccc2)c(=O)[nH]1 the result was Leishmania in macrophages: 16.98%; MtTrpRS: -7.064%; T. brucei: 0.8366%.
For [H][C@@]12CCCN1C[C@H](CCSC)N(Cc1cn(C)nc1C)C2 the result was Leishmania in macrophages: 11.29%; T. brucei: 13.71%.
For CCOc1cccc(C(=O)Nc2ccn(CC)n2)c1 the result was Leishmania in macrophages: 6.858%; MtTrpRS: -0.2546%; T. brucei: 6.255%.
For Cc1nn(C)cc1C(=O)NC(CC(C)C)C(=O)Nc1cc[nH]n1 (stereo not given) the result was Leishmania in macrophages: -5.502%; MtTrpRS: -5.502%; T. brucei: -68.75%.
For O=C(NCCc1ccccc1Cl)NCC1(O)CCSC1 (stereo not given) the result was Leishmania in macrophages: 12.21%; MtTrpRS: 0%; T. brucei: 2.768%.
For CN1CCN(C(=O)C[C@@H]2COC[C@H]3CN(c4ccncn4)C[C@@H]23)CC1 the result was MtTrpRS: 17.48%.
For Cc1noc(C(C)C)c1C(=O)NCC1CCN(c2ccccc2)C1 (stereo not given) the result was Leishmania in macrophages: -23.3%; MtTrpRS: -1.917%; T. brucei: -43.22%.
For c1cncc(CN2C[C@H]3CCC[C@@H](CNc4cnccn4)[C@H]3C2)c1 the result was MtTrpRS: 0.5089%.
For CCOCCSc1nnc(Cc2ccccc2F)o1 the result was Leishmania in macrophages: 10.53%; MtTrpRS: -9.747%; T. brucei: -34.36%.
For COCCOC[C@]1(CNCc2cccc(OC)c2)C[C@@H](O)[C@@H](O)C1.Cl the result was Leishmania in macrophages: 7.138%; T. brucei: -15.16%.
For COc1ccc(S(N)(=O)=O)cc1C(=O)N(C)Cc1cc(C)on1 the result was Leishmania in macrophages: 10.19%; MtTrpRS: 0.6681%; T. brucei: -8.16%.
For Cc1ccccc1S(=O)(=O)N1CCc2c(ncnc2N(C)C)C1 the result was Leishmania in macrophages: 10.47%; MtTrpRS: 7.686%; T. brucei: -56.81%.
For CC(C)c1noc(OCC(=O)N(C)C(C)C)n1 the result was Leishmania in macrophages: 47.82%; MtTrpRS: 0.311%; T. brucei: 6.674%.
For Cn1ccnc1C(=O)N1CCC2(CC1)CC(Oc1cccnc1)CO2 (stereo not given) the result was MtTrpRS: -1.424%.
For N#Cc1ccc(C2CC(=O)Nc3c(C(=O)O)nsc32)cc1 (stereo not given) the result was Leishmania in macrophages: 25.99%; MtTrpRS: 1.295%; T. brucei: -17.06%.
For Cc1ccc(CN(CCN(C)C)Cc2nc3ccccc3[nH]2)s1 the result was Leishmania in macrophages: 10.39%; MtTrpRS: -2.968%; T. brucei: -14.79%.
For COc1cc(Oc2cnc3ccccc3n2)ccc1CN1CCCC1 the result was Leishmania in macrophages: 18.57%; MtTrpRS: -1.22%; T. brucei: -18.27%.
For CCS(=O)(=O)N1Cc2nccn2CC(COc2cccnc2)C1 (stereo not given) the result was Leishmania in macrophages: 16.76%; MtTrpRS: -3.253%; T. brucei: 39.64%.
For CN(Cc1nnc(-c2ccco2)o1)Cc1nc2c(s1)CCCC2 the result was Leishmania in macrophages: 1.199%; MtTrpRS: -6.244%; T. brucei: 0.8276%.
For CC(CO)CN(Cc1ccccc1)Cc1cnc2ccccc2n1 (stereo not given) the result was Leishmania in macrophages: -14.27%; MtTrpRS: 1.694%; T. brucei: 3.356%.
For CC(C)N(Cc1ccccc1)C(=O)c1cc(C2CCCN2C)ccn1 (stereo not given) the result was Leishmania in macrophages: 12.11%; T. brucei: 14.71%.
For Cc1cc(C)c(CNC(=O)NCCC2CCCO2)c(=O)[nH]1 (stereo not given) the result was Leishmania in macrophages: 19.92%; MtTrpRS: -1.456%.
For O=C(Cn1ccc2sccc2c1=O)NCc1ccc(F)cc1 the result was Leishmania in macrophages: 9.106%; MtTrpRS: -0.9331%; T. brucei: -2.039%.

Repeated from the top, 3 entries:

SMILES	Leishmania in macrophages	MtTrpRS	T. brucei
COc1ncccc1CN1C[C@H]2C[C@@H](C(=O)NCC3CC3)N(C)[C@H]2C1	-	-5.141%	-
Cc1ccc(N2CC3(COCCN(Cc4ccncc4)C3)OCC2=O)s1 (stereo not given)	-	-8.207%	-
CC(C)(C)c1cc(CN2CCOC(CN)C2)n[nH]1 (stereo not given)	18.66%	1.685%	-30.03%

The values are deposited in ChEMBL (CHEMBL3988442, “University of Dundee, Small-Polar-MMV Screening Library” (2021)).